Measured values: article PMC7618310
Results are given in words; binding and its absence hold for the method and conditions named. In cells and extracts the contact can be indirect. Here binding means that the protein was enriched with, or labelled near, the bait; the list need not be complete. For part of these data: No binding means not detected with the bait.

Protein sequences, listed by entry. Tags and fused reporters are not part of them.
UniProt Q8N4C6: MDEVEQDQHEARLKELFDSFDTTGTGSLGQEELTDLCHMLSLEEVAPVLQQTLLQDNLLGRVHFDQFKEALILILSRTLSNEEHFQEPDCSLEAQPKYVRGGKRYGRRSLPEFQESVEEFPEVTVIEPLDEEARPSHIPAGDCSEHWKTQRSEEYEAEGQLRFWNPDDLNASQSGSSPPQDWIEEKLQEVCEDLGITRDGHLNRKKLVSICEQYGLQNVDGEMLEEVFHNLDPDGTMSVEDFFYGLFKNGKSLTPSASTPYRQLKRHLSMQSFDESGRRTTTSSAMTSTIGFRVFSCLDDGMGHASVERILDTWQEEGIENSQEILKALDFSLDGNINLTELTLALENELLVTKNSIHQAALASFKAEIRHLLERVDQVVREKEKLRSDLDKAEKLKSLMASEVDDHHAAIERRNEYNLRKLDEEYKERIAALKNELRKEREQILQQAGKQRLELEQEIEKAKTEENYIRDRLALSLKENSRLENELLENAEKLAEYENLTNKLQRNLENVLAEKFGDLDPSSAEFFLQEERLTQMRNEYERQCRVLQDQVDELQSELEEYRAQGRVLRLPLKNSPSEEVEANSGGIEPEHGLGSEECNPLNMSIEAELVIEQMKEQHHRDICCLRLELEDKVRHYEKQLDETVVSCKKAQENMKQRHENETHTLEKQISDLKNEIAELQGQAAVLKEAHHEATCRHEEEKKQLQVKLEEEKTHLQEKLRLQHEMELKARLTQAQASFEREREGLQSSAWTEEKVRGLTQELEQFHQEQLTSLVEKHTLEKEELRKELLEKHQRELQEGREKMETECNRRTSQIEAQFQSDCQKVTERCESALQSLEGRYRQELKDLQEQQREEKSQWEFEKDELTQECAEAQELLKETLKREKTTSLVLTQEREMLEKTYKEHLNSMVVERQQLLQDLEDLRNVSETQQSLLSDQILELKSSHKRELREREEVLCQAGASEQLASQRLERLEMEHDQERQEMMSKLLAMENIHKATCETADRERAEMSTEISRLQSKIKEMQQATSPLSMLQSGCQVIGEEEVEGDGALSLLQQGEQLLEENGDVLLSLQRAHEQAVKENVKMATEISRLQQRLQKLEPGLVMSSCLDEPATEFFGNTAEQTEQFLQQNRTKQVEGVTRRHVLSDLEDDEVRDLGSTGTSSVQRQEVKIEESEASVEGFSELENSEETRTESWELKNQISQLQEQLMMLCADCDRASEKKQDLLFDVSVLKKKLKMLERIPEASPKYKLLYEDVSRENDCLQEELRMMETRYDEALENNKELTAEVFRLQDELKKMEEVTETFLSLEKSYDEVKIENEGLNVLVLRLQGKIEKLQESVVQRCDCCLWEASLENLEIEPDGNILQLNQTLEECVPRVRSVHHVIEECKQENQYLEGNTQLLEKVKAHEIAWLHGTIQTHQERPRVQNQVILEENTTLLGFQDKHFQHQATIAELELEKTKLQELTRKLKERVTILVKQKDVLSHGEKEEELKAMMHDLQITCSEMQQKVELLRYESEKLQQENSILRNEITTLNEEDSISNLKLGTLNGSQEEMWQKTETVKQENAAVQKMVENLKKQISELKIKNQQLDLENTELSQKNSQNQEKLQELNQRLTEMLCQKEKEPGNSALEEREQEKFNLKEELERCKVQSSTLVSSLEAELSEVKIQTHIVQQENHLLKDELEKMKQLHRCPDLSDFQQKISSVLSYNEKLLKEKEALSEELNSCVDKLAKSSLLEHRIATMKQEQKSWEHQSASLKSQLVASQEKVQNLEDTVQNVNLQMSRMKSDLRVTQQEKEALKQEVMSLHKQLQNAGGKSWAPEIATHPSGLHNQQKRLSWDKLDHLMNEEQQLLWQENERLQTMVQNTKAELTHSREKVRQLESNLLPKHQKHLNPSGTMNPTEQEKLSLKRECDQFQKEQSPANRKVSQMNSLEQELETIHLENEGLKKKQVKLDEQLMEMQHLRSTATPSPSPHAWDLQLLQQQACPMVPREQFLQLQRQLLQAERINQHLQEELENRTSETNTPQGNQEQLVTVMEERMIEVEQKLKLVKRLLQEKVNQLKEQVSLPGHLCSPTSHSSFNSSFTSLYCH

How the values were obtained:
[1] = target: T1, CAPture peptide (biotinylated 33-residue peptide from the low-complexity region of CCDC61); assay: affinity purification with mass spectrometry; CAPture-MS from HEK293T cells treated with 150 nM centrinone for 8 days (centrioles depleted), n = 3 CAPture and n = 2 bead-only, LFQ against control cells; only the target purified
T1 sequence (peptide, biotin on the N-terminus (Biotin-SPSPT...)): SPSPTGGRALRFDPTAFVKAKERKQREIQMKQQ

[2] = target: T1, CAPture peptide (biotinylated 33-residue peptide from the low-complexity region of CCDC61); assay: condition: only centrinone-treated HEK293T cells (centrioles absent); affinity purification with mass spectrometry; CAPture-MS from HEK293T cells treated with 150 nM centrinone for 8 days (centrioles depleted), n = 3 CAPture and n = 2 bead-only, LFQ against control cells; only the target purified
[3] = target: T1, CAPture peptide (biotinylated 33-residue peptide from the low-complexity region of CCDC61); assay: affinity purification with mass spectrometry; CAPture-MS: biotinylated peptide on streptavidin Dynabeads M-280, sonicated whole-cell lysates (HEK293T, HAP1, U251, Jurkat, N1E-115, mouse spleen and others; also CEP83-KO HAP1 for proteins that remained), CAPture buffer with 300 mM NaCl, 2 h at 4 °C, on-bead digestion; shotgun, LFQ or TMT; bead-only control; only the target purified

binding [1]: binds
binding [2]: no binding
binding [3]: binds
Substance: Ninein (from UniProt Q8N4C6 1-2090)
